We go through one substance from article PMC7822942.

Protein sequences, listed by entry. Tags and fused reporters are not part of them. Residues count along the entry.
UniProt Q6VNS1, residues 32-825: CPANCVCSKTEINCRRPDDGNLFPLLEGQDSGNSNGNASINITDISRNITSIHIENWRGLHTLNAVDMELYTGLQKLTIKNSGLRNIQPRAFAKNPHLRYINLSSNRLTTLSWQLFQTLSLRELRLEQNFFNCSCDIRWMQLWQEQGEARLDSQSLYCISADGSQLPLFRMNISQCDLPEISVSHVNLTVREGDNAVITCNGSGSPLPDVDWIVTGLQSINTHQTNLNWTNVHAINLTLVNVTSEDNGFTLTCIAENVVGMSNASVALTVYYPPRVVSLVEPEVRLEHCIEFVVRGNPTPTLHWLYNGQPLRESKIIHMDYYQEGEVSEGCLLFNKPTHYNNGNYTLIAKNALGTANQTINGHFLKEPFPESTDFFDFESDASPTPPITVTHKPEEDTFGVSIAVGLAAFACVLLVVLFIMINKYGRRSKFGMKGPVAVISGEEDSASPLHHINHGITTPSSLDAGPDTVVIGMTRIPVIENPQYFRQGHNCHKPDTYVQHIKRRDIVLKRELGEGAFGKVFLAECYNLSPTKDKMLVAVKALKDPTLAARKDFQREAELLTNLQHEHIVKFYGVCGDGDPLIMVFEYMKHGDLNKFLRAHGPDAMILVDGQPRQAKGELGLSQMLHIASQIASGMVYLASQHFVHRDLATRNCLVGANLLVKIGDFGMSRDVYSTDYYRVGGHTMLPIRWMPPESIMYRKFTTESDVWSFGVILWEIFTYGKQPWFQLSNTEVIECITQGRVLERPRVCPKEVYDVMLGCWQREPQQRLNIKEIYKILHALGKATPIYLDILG

The target of this assay is T1, GABAA receptor γ2 subunit (mouse (endogenous in brain of gephyrin floxed mice)) (UniProt P22723).
T1 sequence: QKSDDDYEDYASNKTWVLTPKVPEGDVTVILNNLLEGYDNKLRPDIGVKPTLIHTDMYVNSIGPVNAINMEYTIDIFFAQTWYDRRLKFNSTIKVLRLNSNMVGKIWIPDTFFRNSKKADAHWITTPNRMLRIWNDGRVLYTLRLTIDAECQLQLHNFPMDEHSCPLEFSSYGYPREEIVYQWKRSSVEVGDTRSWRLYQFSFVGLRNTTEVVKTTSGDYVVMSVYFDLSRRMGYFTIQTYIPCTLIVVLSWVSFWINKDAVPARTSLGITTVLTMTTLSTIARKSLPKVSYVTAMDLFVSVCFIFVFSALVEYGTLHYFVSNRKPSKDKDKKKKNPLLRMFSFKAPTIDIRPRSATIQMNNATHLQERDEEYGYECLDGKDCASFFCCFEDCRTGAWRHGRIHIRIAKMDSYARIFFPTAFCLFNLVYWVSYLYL
In words: co-IP; synaptosomal fractions of adult brains of gephyrin floxed mice injected with the indicated AAVs; immunoprecipitated with anti-GABAARγ2 antibodies, rabbit IgG as negative control; immunoblot.

These are yes or no findings as the source states them, for the method shown. Binding seen in cells or lysates may run through a third protein.

Regarding “TrkC (from UniProt Q6VNS1 32-825) (receptor)”, the binding result is “no binding”.
